# Laboratory results as given in the supplement of paper PMC8728848.
# The list shows a part of the results.
# B1: Protectin (Homo sapiens), P13987 (protein)
# chain: MGIQGGSVLFGLLLVLAVFCHSGHSLQCYNCPNPTADCKTAVNCSSDFDACLITKAGLQVYNKCWKFEHCNFNDVTTRLRENELTYYCCKKDLCNFNEQLENGGTSLSEKTVLLLVTPFLAAAWSLHP
# Columns and labels:
# Assay in all cases: glycan array binding signal (z-score within array); higher = stronger binding
# Settings in all cases: glycan notation: IUPAC condensed, linker removed
# Fuc(a1-2)Gal = biological target: Fuc(a1-2)Gal
# Method in brief: (§1)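 Negative Z-scores can be read as non-binding. The Z-score is calculated within each array and then averaged across arrays of one protein sequence at different concentrations or buffers and across linkers. Arrays, 3228 in all, were curated from the Consortium for Functional Glycomics database and kept only where the protein sequence was available.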
# Fuc(a1-2)Gal(b1-3)GalNAc = biological target: Fuc(a1-2)Gal(b1-3)GalNAc
# Method in brief: as §1
# [1] = biological target: Fuc(a1-2)Gal(b1-3)GalNAc(a1-3)[Fuc(a1-2)]Gal(b1-4)Glc
# Method in brief: as §1
# [2] = biological target: Fuc(a1-2)Gal(b1-3)GalNAc(a1-3)[Fuc(a1-2)]Gal(b1-4)GlcNAc
# Method in brief: as §1
# [3] = biological target: Fuc(a1-2)Gal(b1-3)GalNAc(b1-3)Gal
# Method in brief: as §1
# [4] = biological target: Fuc(a1-2)Gal(b1-3)GalNAc(b1-3)Gal(a1-4)Gal(b1-4)Glc
# Method in brief: as §1
# [5] = biological target: Fuc(a1-2)Gal(b1-3)GalNAc(b1-4)[Neu5Ac(a2-3)]Gal(b1-4)Glc
# Method in brief: as §1
# Fuc(a1-2)Gal(b1-3)GlcNAc = biological target: Fuc(a1-2)Gal(b1-3)GlcNAc
# Method in brief: as §1
# [6] = biological target: Fuc(a1-2)Gal(b1-3)GlcNAc(b1-2)Man(a1-3)[Fuc(a1-2)Gal(b1-3)GlcNAc(b1-2)Man(a1-6)]Man(b1-4)GlcNAc(b1-4)GlcNAc
# Method in brief: as §1
# [7] = biological target: Fuc(a1-2)Gal(b1-3)GlcNAc(b1-2)Man(a1-3)[Fuc(a1-2)Gal(b1-3)GlcNAc(b1-2)Man(a1-6)]Man(b1-4)GlcNAc(b1-4)[Fuc(a1-6)]GlcNAc
# Method in brief: as §1
# [8] = biological target: Fuc(a1-2)Gal(b1-3)GlcNAc(b1-3)Gal(b1-4)Glc
# Method in brief: as §1
# [9] = biological target: Fuc(a1-2)Gal(b1-3)GlcNAc(b1-3)GalNAc
# Method in brief: as §1
# [10] = biological target: Fuc(a1-2)Gal(b1-3)GlcNAc(b1-3)[Fuc(a1-3)[Gal(b1-4)]GlcNAc(b1-6)]Gal(b1-4)Glc
# Method in brief: as §1
# [11] = biological target: Fuc(a1-2)Gal(b1-3)GlcNAc(b1-3)[Gal(b1-4)GlcNAc(b1-6)]Gal(b1-4)Glc
# Method in brief: as §1
# [12] = biological target: Fuc(a1-2)Gal(b1-3)GlcNAc(b1-3)[Neu5Ac(a2-6)Gal(b1-4)GlcNAc(b1-6)]Gal(b1-4)Glc
# Method in brief: as §1
# [13] = biological target: Fuc(a1-2)Gal(b1-3)[Fuc(a1-4)]GlcNAc
# Method in brief: as §1
# [14] = biological target: Fuc(a1-2)Gal(b1-3)[Fuc(a1-4)]GlcNAc(b1-2)Man(a1-3)[Fuc(a1-2)Gal(b1-3)[Fuc(a1-4)]GlcNAc(b1-2)Man(a1-6)]Man(b1-4)GlcNAc(b1-4)GlcNAc
# Method in brief: as §1
# [15] = biological target: Fuc(a1-2)Gal(b1-3)[Fuc(a1-4)]GlcNAc(b1-3)[Fuc(a1-3)[Gal(b1-4)]GlcNAc(b1-6)]Gal(b1-4)Glc
# Method in brief: as §1
# [16] = biological target: Fuc(a1-2)Gal(b1-3)[Fuc(a1-4)]GlcNAc(b1-3)[Gal(b1-4)GlcNAc(b1-6)]Gal(b1-4)Glc
# Method in brief: as §1
# Fuc(a1-2)Gal(b1-4)Glc = biological target: Fuc(a1-2)Gal(b1-4)Glc
# Method in brief: as §1
# Fuc(a1-2)Gal(b1-4)Glc6S = biological target: Fuc(a1-2)Gal(b1-4)Glc6S
# Method in brief: as §1
# Fuc(a1-2)Gal(b1-4)GlcNAc = biological target: Fuc(a1-2)Gal(b1-4)GlcNAc
# Method in brief: as §1
# [17] = biological target: Fuc(a1-2)Gal(b1-4)GlcNAc(b1-2)Man(a1-3)[Fuc(a1-2)Gal(b1-4)GlcNAc(b1-2)Man(a1-6)]Man(b1-4)GlcNAc(b1-4)GlcNAc
# Method in brief: as §1
# [18] = biological target: Fuc(a1-2)Gal(b1-4)GlcNAc(b1-2)Man(a1-3)[Fuc(a1-2)Gal(b1-4)GlcNAc(b1-2)Man(a1-6)]Man(b1-4)GlcNAc(b1-4)[Fuc(a1-6)]GlcNAc
# Method in brief: as §1
# [19] = biological target: Fuc(a1-2)Gal(b1-4)GlcNAc(b1-2)[Fuc(a1-2)Gal(b1-4)GlcNAc(b1-4)]Man(a1-3)[Fuc(a1-2)Gal(b1-4)GlcNAc(b1-2)Man(a1-6)]Man(b1-4)GlcNAc(b1-4)GlcNAc
# Method in brief: as §1
# [20] = biological target: Fuc(a1-2)Gal(b1-4)GlcNAc(b1-3)Gal(b1-4)GlcNAc
# Method in brief: as §1
# [21] = biological target: Fuc(a1-2)Gal(b1-4)GlcNAc(b1-3)Gal(b1-4)GlcNAc(b1-3)Gal(b1-4)GlcNAc
# Method in brief: as §1
# [22] = biological target: Fuc(a1-2)Gal(b1-4)GlcNAc(b1-3)GalNAc
# Method in brief: as §1
# [23] = biological target: Fuc(a1-2)Gal(b1-4)GlcNAc(b1-3)[Fuc(a1-2)Gal(b1-4)GlcNAc(b1-6)]GalNAc
# Method in brief: as §1
# [24] = biological target: Fuc(a1-2)Gal(b1-4)GlcNAc6S
# Method in brief: as §1
binder,measurement,setting,value
B1,glycan array binding signal (z-score),Fuc(a1-2)Gal,-0.701
same,glycan array binding signal (z-score),Fuc(a1-2)Gal(b1-3)GalNAc,-0.055
same,glycan array binding signal (z-score),[1],-0.849
same,glycan array binding signal (z-score),[2],-0.179
same,glycan array binding signal (z-score),[3],0.099
same,glycan array binding signal (z-score),[4],0.113
same,glycan array binding signal (z-score),[5],0.035
same,glycan array binding signal (z-score),Fuc(a1-2)Gal(b1-3)GlcNAc,-0.579
same,glycan array binding signal (z-score),[6],2.12
same,glycan array binding signal (z-score),[7],-0.158
same,glycan array binding signal (z-score),[8],-0.616
same,glycan array binding signal (z-score),[9],-1.15
same,glycan array binding signal (z-score),[10],1.82
same,glycan array binding signal (z-score),[11],-0.84
same,glycan array binding signal (z-score),[12],-0.347
same,glycan array binding signal (z-score),[13],-0.358
same,glycan array binding signal (z-score),[14],3.68
same,glycan array binding signal (z-score),[15],-1.32
same,glycan array binding signal (z-score),[16],-0.784
same,glycan array binding signal (z-score),Fuc(a1-2)Gal(b1-4)Glc,0.462
same,glycan array binding signal (z-score),Fuc(a1-2)Gal(b1-4)Glc6S,0.64
same,glycan array binding signal (z-score),Fuc(a1-2)Gal(b1-4)GlcNAc,0.888
same,glycan array binding signal (z-score),[17],1.05
same,glycan array binding signal (z-score),[18],0.22
same,glycan array binding signal (z-score),[19],0.188
same,glycan array binding signal (z-score),[20],-0.276
same,glycan array binding signal (z-score),[21],-0.229
same,glycan array binding signal (z-score),[22],0.183
same,glycan array binding signal (z-score),[23],2.31
same,glycan array binding signal (z-score),[24],-0.083

# As a working copy, some entries already given.
binder,measurement,setting,value
B1,glycan array binding signal (z-score),[14],3.68
same,glycan array binding signal (z-score),[15],-1.32
